Assay results from the supplement of paper PMC8728848.
This is one part of the list.

Legend:
Assay in all cases: glycan array binding signal (z-score within array); higher = stronger binding
Conditions in all cases: glycan notation: IUPAC condensed, linker removed
Gal3S6S(b1-4)GlcNAc = target: Gal3S6S(b1-4)GlcNAc
Outline: (§1)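 Negative Z-scores can be read as non-binding. The Z-score is calculated within each array and then averaged across arrays of one protein sequence at different concentrations or buffers and across linkers. Arrays, 3228 in all, were curated from the Consortium for Functional Glycomics database and kept only where the protein sequence was available.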

Gal3S6S(b1-4)GlcNAc6S = target: Gal3S6S(b1-4)GlcNAc6S
Outline: as §1

Gal4S(b1-4)GlcNAc = target: Gal4S(b1-4)GlcNAc
Outline: as §1

Gal4S6S(b1-4)GlcNAc = target: Gal4S6S(b1-4)GlcNAc
Outline: as §1

Gal6P(b1-4)GlcNAc = target: Gal6P(b1-4)GlcNAc
Outline: as §1

Gal6S(b1-3)GlcNAc = target: Gal6S(b1-3)GlcNAc
Outline: as §1

Gal6S(b1-3)GlcNAc6S = target: Gal6S(b1-3)GlcNAc6S
Outline: as §1

Gal6S(b1-4)Glc = target: Gal6S(b1-4)Glc
Outline: as §1

Gal6S(b1-4)Glc6S = target: Gal6S(b1-4)Glc6S
Outline: as §1

Gal6S(b1-4)GlcNAc = target: Gal6S(b1-4)GlcNAc
Outline: as §1

Gal6S(b1-4)GlcNAc6S = target: Gal6S(b1-4)GlcNAc6S
Outline: as §1

GalNAc(a1-3)Gal = target: GalNAc(a1-3)Gal
Outline: as §1

GalNAc(a1-3)GalNAc = target: GalNAc(a1-3)GalNAc
Outline: as §1

[1] = target: GalNAc(a1-3)GalNAc(b1-3)Gal(a1-4)Gal(b1-4)Glc
Outline: as §1

[2] = target: GalNAc(a1-3)GalNAc(b1-3)Gal(a1-4)Gal(b1-4)GlcNAc
Outline: as §1

GalNAc(b1-3)Gal = target: GalNAc(b1-3)Gal
Outline: as §1

[3] = target: GalNAc(b1-3)Gal(a1-4)Gal(b1-4)GlcNAc
Outline: as §1

[4] = target: GalNAc(b1-3)Gal(a1-4)Gal(b1-4)GlcNAc(b1-3)Gal(b1-4)Glc
Outline: as §1

[5] = target: GalNAc(b1-3)Gal(a1-6)Gal(b1-4)Glc
Outline: as §1

GalNAc(b1-3)GalNAc = target: GalNAc(b1-3)GalNAc
Outline: as §1

GalNAc(b1-3)GlcNAc = target: GalNAc(b1-3)GlcNAc
Outline: as §1

GalNAc(b1-4)Gal(b1-4)Glc = target: GalNAc(b1-4)Gal(b1-4)Glc
Outline: as §1

GalNAc(b1-4)GlcNAc = target: GalNAc(b1-4)GlcNAc
Outline: as §1

[6] = target: GalNAc(b1-4)GlcNAc(b1-2)Man
Outline: as §1

[7] = target: GalNAc(b1-4)GlcNAc(b1-2)Man(a1-3)[GalNAc(b1-4)GlcNAc(b1-2)Man(a1-6)]Man(b1-4)GlcNAc(b1-4)GlcNAc
Outline: as §1

[8] = target: GalNAc(b1-4)GlcNAc(b1-3)GalNAc(b1-4)GlcNAc
Outline: as §1

GalNAc(b1-4)GlcNAc6S = target: GalNAc(b1-4)GlcNAc6S
Outline: as §1

GalNAc(b1-6)GalNAc = target: GalNAc(b1-6)GalNAc
Outline: as §1

GalNAc3S(b1-4)GlcNAc = target: GalNAc3S(b1-4)GlcNAc
Outline: as §1

GalNAc3S(b1-4)GlcNAc3S = target: GalNAc3S(b1-4)GlcNAc3S
Outline: as §1

[9] = target: GalNAc3S(b1-4)[Fuc(a1-3)]GlcNAc
Outline: as §1

GalNAc4S6S(b1-4)GlcNAc = target: GalNAc4S6S(b1-4)GlcNAc
Outline: as §1

GalNAc6S(b1-4)GlcNAc = target: GalNAc6S(b1-4)GlcNAc
Outline: as §1

Glc(a1-4)Glc = target: Glc(a1-4)Glc
Outline: as §1

[10] = target: Glc(a1-4)Glc(a1-4)Glc(a1-4)Glc
Outline: as §1

Glc(a1-6)Glc(a1-6)Glc = target: Glc(a1-6)Glc(a1-6)Glc
Outline: as §1

[11] = target: Glc(a1-6)Glc(a1-6)Glc(a1-6)Glc
Outline: as §1

Glc(b1-4)Glc = target: Glc(b1-4)Glc
Outline: as §1

B1: PX15642A-pgi-501-20-501 (Parabacteroides gingivalis) (protein)
chain: CELDRDPEGKDFQQPYTSFVQTKQNRDGLYALLRNTENPRMHFYQELQSDMYCTTITDGNSLAPFVNWDLGILNDHGRADEDEVSGIAGYYFVYNRLNQQANAFVNNTEAALQNQVYKNSTEIANAKSFLAEGKVLQALAIWRLMDRFSFHESVTEVNSGAKDLGVILLKEYNPGYIGPRATKAQCYDYILSRLSEAIEVLPENRESVLYVSRDYAYALRARIYLALGEYGKAAADAKMVVDKYPLIGAADASEFENIYRSDANNPEIIFRGFASATLGSFTATTLNGAAPAGKDIKYNPSAVPFQWVVDLYENEDFRKSVYIAKVVKKDKGYLVNKFLEDKAYRDVQDKPNLKVGARYFSVAEVYLILVESALQTGDTPTAEKYLKALSKARGAEVSVVNMEALQAERTRELIGEGSRLRDMVRWSIPNNHDAFETQPGLEGFANTTPLKAQAPVGFYAYTWEFPQRDRQTNPQLIKNWPI
Gal3S6S(b1-4)GlcNAc
  glycan array binding signal (z-score): 0.098
Gal3S6S(b1-4)GlcNAc6S
  glycan array binding signal (z-score): 0.761
Gal4S(b1-4)GlcNAc
  glycan array binding signal (z-score): -0.028
Gal4S6S(b1-4)GlcNAc
  glycan array binding signal (z-score): 0.294
Gal6P(b1-4)GlcNAc
  glycan array binding signal (z-score): -0.543
Gal6S(b1-3)GlcNAc
  glycan array binding signal (z-score): 0.549
Gal6S(b1-3)GlcNAc6S
  glycan array binding signal (z-score): 0.484
Gal6S(b1-4)Glc
  glycan array binding signal (z-score): -0.221
Gal6S(b1-4)Glc6S
  glycan array binding signal (z-score): -0.22
Gal6S(b1-4)GlcNAc
  glycan array binding signal (z-score): -0.272
Gal6S(b1-4)GlcNAc6S
  glycan array binding signal (z-score): -0.062
GalNAc(a1-3)Gal
  glycan array binding signal (z-score): 0.395
GalNAc(a1-3)GalNAc
  glycan array binding signal (z-score): 0.045
[1]
  glycan array binding signal (z-score): -0.054
[2]
  glycan array binding signal (z-score): -0.152
GalNAc(b1-3)Gal
  glycan array binding signal (z-score): -1.07
[3]
  glycan array binding signal (z-score): 0.004
[4]
  glycan array binding signal (z-score): -0.279
[5]
  glycan array binding signal (z-score): -0.823
GalNAc(b1-3)GalNAc
  glycan array binding signal (z-score): -0.872
GalNAc(b1-3)GlcNAc
  glycan array binding signal (z-score): -0.542
GalNAc(b1-4)Gal(b1-4)Glc
  glycan array binding signal (z-score): 0.047
GalNAc(b1-4)GlcNAc
  glycan array binding signal (z-score): 0.727
[6]
  glycan array binding signal (z-score): 0.118
[7]
  glycan array binding signal (z-score): 1.15
[8]
  glycan array binding signal (z-score): 5.6
GalNAc(b1-4)GlcNAc6S
  glycan array binding signal (z-score): -0.092
GalNAc(b1-6)GalNAc
  glycan array binding signal (z-score): -0.899
GalNAc3S(b1-4)GlcNAc
  glycan array binding signal (z-score): 0.044
GalNAc3S(b1-4)GlcNAc3S
  glycan array binding signal (z-score): 0.048
[9]
  glycan array binding signal (z-score): -0.47
GalNAc4S6S(b1-4)GlcNAc
  glycan array binding signal (z-score): 0.354
GalNAc6S(b1-4)GlcNAc
  glycan array binding signal (z-score): -1.07
Glc(a1-4)Glc
  glycan array binding signal (z-score): -0.101
[10]
  glycan array binding signal (z-score): -0.549
Glc(a1-6)Glc(a1-6)Glc
  glycan array binding signal (z-score): 1.35
[11]
  glycan array binding signal (z-score): -0.152
Glc(b1-4)Glc
  glycan array binding signal (z-score): -0.774
